This test deals with RPS6KA. Put plainly: Full dose-response kinase assay. In kind it is biochemical.

Molecules are shown by their SMILES.

In the case of `CN[C@@H]1C[C@H]2O[C@@](C)([C@@H]1OC)n1c3ccccc3c3c4c(c5c6ccccc6n2c5c31)C(=O)NC4` [Staurosporine, staurosporine, reference compound], the “IC50 RPS6KA” value was 3 nℳ nM.
